In PMC4870680 one finds binding data, which are given here for two substances.

The chains behind the UniProt entries cited, without tags or fusion partners. Where a name states a change or a piece, a line headed by the entry shows the natural chain unless it says otherwise.
UniProt Q00613: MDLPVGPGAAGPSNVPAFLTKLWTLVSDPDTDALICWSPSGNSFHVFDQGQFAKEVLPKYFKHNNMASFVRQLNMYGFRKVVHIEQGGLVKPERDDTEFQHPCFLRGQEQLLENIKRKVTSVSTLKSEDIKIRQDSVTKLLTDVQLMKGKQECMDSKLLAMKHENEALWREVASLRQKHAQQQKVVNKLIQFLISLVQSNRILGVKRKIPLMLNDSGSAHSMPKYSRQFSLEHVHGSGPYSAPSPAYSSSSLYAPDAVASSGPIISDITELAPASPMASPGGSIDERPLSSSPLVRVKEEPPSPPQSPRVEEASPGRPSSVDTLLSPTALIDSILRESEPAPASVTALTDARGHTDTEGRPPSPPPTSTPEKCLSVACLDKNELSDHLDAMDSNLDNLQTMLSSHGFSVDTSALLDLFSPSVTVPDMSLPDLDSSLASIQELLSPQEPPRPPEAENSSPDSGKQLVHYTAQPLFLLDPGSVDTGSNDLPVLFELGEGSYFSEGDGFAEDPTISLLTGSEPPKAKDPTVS
UniProt Q09472: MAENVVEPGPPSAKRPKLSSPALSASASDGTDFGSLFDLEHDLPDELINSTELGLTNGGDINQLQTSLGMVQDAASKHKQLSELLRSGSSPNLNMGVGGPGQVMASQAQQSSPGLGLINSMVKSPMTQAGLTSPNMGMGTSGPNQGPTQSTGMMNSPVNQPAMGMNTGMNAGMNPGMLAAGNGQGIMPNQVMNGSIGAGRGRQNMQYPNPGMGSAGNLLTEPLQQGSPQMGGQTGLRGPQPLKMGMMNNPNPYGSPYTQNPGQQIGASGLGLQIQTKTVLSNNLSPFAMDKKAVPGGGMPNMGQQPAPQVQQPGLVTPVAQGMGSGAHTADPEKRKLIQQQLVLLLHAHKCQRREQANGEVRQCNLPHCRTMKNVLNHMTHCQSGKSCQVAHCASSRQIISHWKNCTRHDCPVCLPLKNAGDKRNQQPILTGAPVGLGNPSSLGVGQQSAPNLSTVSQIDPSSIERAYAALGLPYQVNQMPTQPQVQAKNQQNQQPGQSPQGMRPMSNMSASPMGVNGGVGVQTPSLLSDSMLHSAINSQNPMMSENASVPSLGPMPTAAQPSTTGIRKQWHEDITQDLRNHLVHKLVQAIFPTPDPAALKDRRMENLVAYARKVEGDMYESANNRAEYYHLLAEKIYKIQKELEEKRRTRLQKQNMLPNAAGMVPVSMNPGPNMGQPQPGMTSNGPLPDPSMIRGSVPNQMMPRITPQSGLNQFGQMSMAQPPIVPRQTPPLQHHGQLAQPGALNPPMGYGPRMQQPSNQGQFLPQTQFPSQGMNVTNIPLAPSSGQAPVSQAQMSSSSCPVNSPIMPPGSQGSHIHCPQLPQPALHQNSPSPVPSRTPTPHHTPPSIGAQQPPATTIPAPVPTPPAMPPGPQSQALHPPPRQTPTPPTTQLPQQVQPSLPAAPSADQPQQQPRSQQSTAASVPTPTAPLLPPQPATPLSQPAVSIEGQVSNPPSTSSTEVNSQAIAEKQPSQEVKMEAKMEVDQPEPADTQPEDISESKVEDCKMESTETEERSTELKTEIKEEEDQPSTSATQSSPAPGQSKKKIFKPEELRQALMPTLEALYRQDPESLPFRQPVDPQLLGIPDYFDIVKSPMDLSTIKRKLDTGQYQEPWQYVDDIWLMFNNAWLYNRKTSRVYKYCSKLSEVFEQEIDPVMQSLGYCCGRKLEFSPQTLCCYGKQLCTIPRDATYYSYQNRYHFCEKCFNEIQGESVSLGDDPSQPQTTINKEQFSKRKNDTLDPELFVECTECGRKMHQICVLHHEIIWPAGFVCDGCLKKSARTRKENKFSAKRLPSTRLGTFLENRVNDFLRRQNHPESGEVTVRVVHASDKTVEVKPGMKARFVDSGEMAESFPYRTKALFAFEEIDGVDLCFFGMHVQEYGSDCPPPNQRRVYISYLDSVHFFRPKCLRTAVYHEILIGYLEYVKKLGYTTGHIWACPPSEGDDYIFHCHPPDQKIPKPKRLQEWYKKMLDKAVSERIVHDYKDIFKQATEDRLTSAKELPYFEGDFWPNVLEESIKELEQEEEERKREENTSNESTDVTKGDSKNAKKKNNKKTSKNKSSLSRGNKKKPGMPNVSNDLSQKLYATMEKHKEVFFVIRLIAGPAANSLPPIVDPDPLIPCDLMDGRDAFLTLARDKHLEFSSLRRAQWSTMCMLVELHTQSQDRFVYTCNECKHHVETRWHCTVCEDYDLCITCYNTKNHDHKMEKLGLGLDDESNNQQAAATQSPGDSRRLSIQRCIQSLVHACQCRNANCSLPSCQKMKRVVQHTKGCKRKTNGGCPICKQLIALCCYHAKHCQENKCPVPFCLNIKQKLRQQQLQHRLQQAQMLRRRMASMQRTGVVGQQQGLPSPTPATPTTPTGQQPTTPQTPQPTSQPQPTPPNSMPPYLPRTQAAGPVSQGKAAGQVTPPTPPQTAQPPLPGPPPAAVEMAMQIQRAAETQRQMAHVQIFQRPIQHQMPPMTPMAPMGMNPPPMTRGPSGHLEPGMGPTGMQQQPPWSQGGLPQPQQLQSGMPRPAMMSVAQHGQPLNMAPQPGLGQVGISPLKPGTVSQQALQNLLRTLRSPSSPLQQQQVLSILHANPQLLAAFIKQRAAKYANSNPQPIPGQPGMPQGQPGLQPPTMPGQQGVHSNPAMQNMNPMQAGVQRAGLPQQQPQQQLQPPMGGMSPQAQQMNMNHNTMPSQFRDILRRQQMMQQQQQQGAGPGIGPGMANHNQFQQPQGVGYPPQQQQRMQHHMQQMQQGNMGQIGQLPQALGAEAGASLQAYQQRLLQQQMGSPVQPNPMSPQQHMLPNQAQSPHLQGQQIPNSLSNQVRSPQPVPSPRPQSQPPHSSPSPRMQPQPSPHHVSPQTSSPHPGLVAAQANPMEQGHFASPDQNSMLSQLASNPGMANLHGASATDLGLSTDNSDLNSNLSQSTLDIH
UniProt P50750: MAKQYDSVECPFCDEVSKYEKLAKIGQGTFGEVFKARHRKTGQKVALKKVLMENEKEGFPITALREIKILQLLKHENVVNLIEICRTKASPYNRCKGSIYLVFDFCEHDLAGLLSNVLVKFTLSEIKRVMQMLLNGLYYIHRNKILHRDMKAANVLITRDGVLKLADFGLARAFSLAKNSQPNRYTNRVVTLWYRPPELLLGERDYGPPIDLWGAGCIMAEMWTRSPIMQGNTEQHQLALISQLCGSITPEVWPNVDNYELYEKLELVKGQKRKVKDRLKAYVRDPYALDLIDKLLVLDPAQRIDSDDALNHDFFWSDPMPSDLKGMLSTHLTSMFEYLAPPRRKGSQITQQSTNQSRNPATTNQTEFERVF

The test concerns the target heat shock factor 1 (human (endogenous in J-Lat 10.6)) (UniProt Q00613). The test is described as follows: co-IP; J-Lat 10.6 cells treated with 200 uM salubrinal for 2 h, alone or with 5 uM KRIBB11 or 2 uM C646; lysis in 20 mM Tris pH 7.5, 150 mM NaCl, 1% Triton X-100; HSF1 antibody and protein A/G plus-agarose, 4 °C overnight; IgG as negative control; Western blot. On the technique in general: Immunoblotting shows a protein as a band on a membrane.

Results are given in words; binding and its absence hold for the method and conditions named. Binding seen in cells or lysates may run through a third protein. Some binding calls cover weakened binding; strength is not graded here.

Consider p300 (from UniProt Q09472 1-2414), for which the binding entry is recorded as “binds”. As for “positive transcription elongation factor b (from UniProt P50750 1-372; O60563 1-726) (complex)”, the binding result is recorded as “binds”.
